Experimental findings from patent US20170066836A1 (NATIONAL UNIVERSITY CORPORATION KOCHI UNIVERSITY, published 2017) are described below.

Assay [1] has as its target T1, human Glypican-1 forcibly expressed on CT01 chicken T-lymphoblast-like cells (CT01-GPC-1#42) (human) (UniProt P35052).
T1 sequence: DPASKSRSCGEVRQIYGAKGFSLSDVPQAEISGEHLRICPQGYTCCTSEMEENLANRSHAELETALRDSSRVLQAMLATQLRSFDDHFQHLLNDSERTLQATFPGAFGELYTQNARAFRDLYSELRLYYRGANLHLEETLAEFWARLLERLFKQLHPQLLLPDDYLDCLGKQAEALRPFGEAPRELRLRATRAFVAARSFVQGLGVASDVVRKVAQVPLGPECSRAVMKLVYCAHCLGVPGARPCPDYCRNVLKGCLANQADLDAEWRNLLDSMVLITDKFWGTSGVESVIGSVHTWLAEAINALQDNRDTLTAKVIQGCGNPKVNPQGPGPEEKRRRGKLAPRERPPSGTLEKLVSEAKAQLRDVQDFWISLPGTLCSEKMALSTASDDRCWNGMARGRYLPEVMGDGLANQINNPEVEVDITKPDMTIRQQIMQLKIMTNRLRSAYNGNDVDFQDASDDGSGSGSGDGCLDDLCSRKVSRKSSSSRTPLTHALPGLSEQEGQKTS
Description: FACS on CT01 cells forcibly expressing human Glypican-1 against CT01 cells.

Assay [2] concerns the target T1, human Glypican-1 forcibly expressed on CT01 chicken T-lymphoblast-like cells (CT01-GPC-1#42) (human). Description: FACS: clone as primary antibody, FITC-labeled goat anti-mouse IgG as secondary; CT01 cells forcibly expressing human Glypican-1 (CT01-GPC-1#42), Glypican-1-negative CT01 cells as negative cells. In general terms: Flow cytometry measures light scatter and fluorescence of single cells or particles in a stream.

Assay [3] deals with T2, mouse Glypican-1 expressed on 293 cells (mouse, UniProt Q9QZF2 24-529).
T2 construct: whole, on cells; also called mouse GPC-1; mouse GPC1
T2 sequence (looked up): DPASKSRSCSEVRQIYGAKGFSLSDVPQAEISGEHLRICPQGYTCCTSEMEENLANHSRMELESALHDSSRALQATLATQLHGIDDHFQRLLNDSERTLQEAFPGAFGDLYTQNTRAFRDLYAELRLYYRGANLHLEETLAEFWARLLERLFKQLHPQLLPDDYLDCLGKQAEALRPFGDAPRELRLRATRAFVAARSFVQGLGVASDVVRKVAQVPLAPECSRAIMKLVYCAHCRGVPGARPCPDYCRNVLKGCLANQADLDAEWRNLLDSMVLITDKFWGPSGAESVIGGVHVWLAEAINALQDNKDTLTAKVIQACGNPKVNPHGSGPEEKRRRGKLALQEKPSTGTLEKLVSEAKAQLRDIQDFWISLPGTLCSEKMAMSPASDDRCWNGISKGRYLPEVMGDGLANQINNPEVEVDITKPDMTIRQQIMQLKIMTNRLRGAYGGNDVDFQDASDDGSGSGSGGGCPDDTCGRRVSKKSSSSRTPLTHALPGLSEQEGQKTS
Nature of the assay: FACS on 293 cells transfected with a mouse Glypican-1 expression vector against an empty vector.

Assay [4] has as its target T2, mouse Glypican-1 expressed on 293 cells. Description: FACS on 293 cells forcibly expressing mouse GPC1. The protocol:
A mouse Glypican-1 expression vector or an empty vector was transfected to the 293 cell using lipofectamine 2000 and the reactivity with various clones of an anti-Glypican-1 antibody was analyzed by FACS.

In assay [5] the target is T3, human Glypican-1 expressed on 293 cells (pFLAG-CMV3 hGPC1) (human) (UniProt P35052).
T3 sequence: T1 sequence
Nature of the assay: FACS on 293 cells transfected with pFLAG-CMV3 hGPC1.

These are yes or no findings as the source states them, for the method shown. Some binding calls cover weakened binding; strength is not graded here. For some of these results: Sequences can lack the tags named with a protein.

B1: anti-GPC-1 antibody 1-66 (antibody, V domains shown)
VH: AVTLDESGGGLQTPGGALSLVCKASGFTFSSYAMGWVRQAPGKGLEFVAGIDRTGTYAGYGAAVKGRATISRDNGQSTVRLQLNNLRAEDTGTYYCAKESTSGCASGICTAAWIDAWGHGTEVIVST
VL: ALTQPSSVSANPGETVKITCSGGGSDYGYGWHQQKSPGSAPVTVIYSNNKRPTDIPSRFSGSTSGSTATLTITGVRAEDEAVYYCGSADSSTFHGIFGAGTTLTV
Take B1: the binding entry in assay [1] and in assay [2] was “binds” each time.

B2: anti-GPC-1 antibody 2-57 (antibody, V domains shown)
VH: AVTLDESGGGLQTPGGALSLVCKASGFDFSSFNMFWVRQAPGKGLEYVAQISSDGSFTAYGAAVKGRATISKDNGQSTVRLQLSNLRAEDTGTYYCTKSASGSVWTAAFSAGSIDAWGHGTEVIVST
VL: ALTQPASVSAKPGETVKITCSGGSIGYSYGWFQQKSPGSAPVTVIYNNNNRPWDIPSRFSGSKSGSTATLTITGVQVADEAVYYCGSADSAGYSGMFGAGTTLTV
Turning to B2, the binding entry in assay [1] and in assay [2] was “binds” each time.

B3: anti-GPC-1 antibody 2-70 (antibody, V domains shown)
VH: AVTLDESGGGLQTPGGALSLVCKASGLSTFSDRGMHWVRQAPGKGLEFVAAISSSGRFTLYGAAVKGRATISRDNGQSTVRLQLNDLRAEDTAIYYCARGTTTGWWADAGEIDAWGHGTEVIVST
VL: ALTQPAFMSANPGETVKITCSGGSYSAYGWFQQKSPGSAPVTLIYNDNIRPSDISSRFSGSKSGSTATLTITGVQADDEAVYFCGNEDRNNTATFGAGTTLTV
notes: detection was with anti-mouse IgG and the control was mouse IgG2a; also called #19; clone 2-70
Regarding B3, the binding result in assay [3] and in assay [4] was “binds” throughout.

B4: anti-GPC-1 antibody 2-77 (antibody, V domains shown)
VH: AVTLDESGGGLQTPGGGLSLVCKASGFDFSNNGMGWVRQAPGKGLEWVAGISGSGTTAYGAAVKGRVTISRDNGQSTVRLQLNNLRAEDTGTYYCAKAAGSCGSDCYTTGFIDAWGHGTEVTVST
VL: ALTQPASVSANPGETVEITCSGGSGNYGWFQQKSPGSAPVTLIYWDDERPSNIPSRFSGSTSGSTATLTITGVQADDEAVYFCGSRDTNYVGMFGAGTTLTV
Turning to B4, the binding result in assay [1] and in assay [2] was “binds” in each case.

B5: anti-GPC-1 antibody 1-27 (antibody, V domains shown)
VH: B4 VH
VL: B4 VL
B5: the binding entry in assay [1] and in assay [2] was “binds” in each case.

B6: anti-GPC-1 antibody 2-14 (antibody, V domains shown)
VH: AVTLDESGGGLQTPGGALSLICKASGFSFSNYDILWVRQAPGKGLEFVAAVSSVSVPSYAPAVKGRATISRDNGQSTVRMQLNNLRAEDSATYYCARGGAGHYYSTATGNIDVWGHGTEVTVST
VL: ALTQPSSVSANPGETVKITCSGGYSGYGYGWYQQKSPGSAPVTVIYDNTNRPSNIPSRFSGSLSGSTNTLTITGVQADDEAVYYCGSTDGSTYIGIFGAGTTLTV
On to B6, for which the binding result in assay [1] is on record as “binds”.

B7: anti-GPC-1 antibody 1-91 (antibody, V domains shown)
VH: AVTLDESGGGLQTPGRALSLVCKASGFTFSNYDMLWVRQAPGKGLEWVGVISSSGSSTNYGAAVKGRATISRDNGQNTVRLQLNNLRAEDTATYYCAKSAYGYYGSGVSDIDAWGLGTEVIVST
VL: ALTQPSSVSANPGETVKITCSGGSGNNYGWYQQKSPGSALVTVIYDNNKRPTDIPSRFSGSTSGSTGTLTITGVQAEDEAVYFCGGYDSSTYADIFGAGTTLTV
Turning to B7, the binding entry in assay [1] and in assay [2] was “binds” throughout.

B8: anti-GPC-1 antibody 2-11 (antibody, V domains shown)
VH: AVTLDESGGGLHTPGGTLSLVCKASGFTFSSYDMIWVRQAPGKGLEYVAEIINTGRETYYGAAVKGRATISRDNRQSTLRLQLNNLRAEDTGTYFCAKAAPWNYAGSIDAWGHGTEVIVST
VL: ALTQPASVSANPGETVKITCSGDDSDYGWYQQKSPGSAPVTVIYSNDERPSDIPSRFSGSKSGSTATLTITGVQADDEAVYYCGSADTSSGTNIFGAGTTLTV
Take B8: the binding entry in assay [1] and in assay [2] was “binds” throughout.

B9: anti-GPC-1 antibody 1-77 (antibody, V domains shown)
VH: AVTLDESGGGLQTPGGGLSLVCKGSGFTLTDRGMHWVRQAPGKGLEWVAAISSSGRFTLYAPAVTGRATISRDNGQSTVRLQLNNLRAEDTGTYYCARGNAGGWWADGGEIDAWGHGTEVIVST
VL: ALTQPSSVSANPGETVKITCSGGSGSYGWFQQKSPGSAPVTVIYSNNKRPSDIPSRFSGSKSGSTNTLTITGVQADDEAVYFCGSADSSYIGIFGAGTTLTV
B9: the binding result in assay [1] and in assay [2] was “binds” in each case.

B10: anti-GPC-1 antibody 2-60 (antibody, V domains shown)
VH: AVTLDESGGGLQTPGGALSLVCKASGFTYSSYAMGWVRQAPGKGLEFVASISSDGSDTAYGSAVKGRATISRDNRQSTLRLQLNNLRAEDTGTYYCAKSYRCSWNCWDYAAKIDAWGHGTEVTVS
VL: VALTQPASVSANPGETVKITCSGSGSYTGSYYYGWYQQKSPGSAPVTVIYNNNKRPSDIPSRFSGSTSGSTATLTITGVQAEDEAVYFCGSYDRSSDSGIFGAGTTLTV
notes: detection was with anti-mouse IgG and the control was mouse IgG2a; also called #17; clone 2-60
On to B10, for which the binding entry in assay [5], in assay [3], in assay [1], in assay [2] and in assay [4] was “binds” in each case.
